Measured values published in article PMC5387032 (Photosynthesis Research, 2017).
No constants are given. Whether binding was seen depends on the method and setting. Binding calls can cover weak binding; strength is not graded here. Where a sequence is shown, tags or fusion partners need not be part of it.

How the values were obtained:
[1] = biological target: RbcLTe–RbcX_(6803) complex (Thermosynechococcus elongatus | Synechocystis sp. PCC 6803); experiment: native gel or EMSA; purified proteins or complexes (2.5 µg, or 5 µg where in excess) mixed, incubated 10 min at room temperature, native PAGE, Coomassie-stained; both purified
[2] = biological target: RbcL from Synechococcus elongatus PCC 7942, made in E. coli (Synechococcus elongatus PCC 7942); experiment: native gel or EMSA; raf1 from Synechocystis co-expressed with rbcL genes in E. coli (or rbcL alone); crude extracts separated by native PAGE and probed with anti-RbcL or anti-RAF1 antibodies

B1: RAF1 from Synechocystis sp. PCC 6803, untagged, made in E. coli (protein)
chain: MTHSPESNPTVSAAEAAELIRSLLHKEGTWVDWGKKCQQLQKAGYGAEEIFEQSGFQKVQQNLVIVASQVYESLVKQGIDETVLSYYRGPKSDVLYELRILNHQQRAIAAVEAQQKNLAADEAKELAKAFQEFGYLSQLPEGFTDHPGDALAYQCWKLARQKKNLPERTRLIVKGLKFAHSPNARQAIEKLLTDLTAQPSRKAPLVPVFRLEEDQEAARLIPVAGTFPLQPQAVQAVQSLEQVEPFGLVSYQGEGAVVPVPQWQAILTAEDPVAIFCPAGQVSESLARKDEQVLVVVDRSKKIWNDGSYFLLNQGETVAIQWCETEPEREILAQVVLVLRPKKIFDANNLREPWQMDD
In the case of B1, the binding [1] is reported as “binds” and the binding [2] is reported as “binds”.
